Assay results reported in PubChem BioAssay AID2685 (National Center for Advancing Translational Sciences (NCATS), 2010).
The other results are listed elsewhere or left out. These are further read-outs of the screen, such as a control signal, another cell line or another target. No call is given for them. The list favours compounds with an active or inconclusive main result. Words in brackets tell the shape of the fitted curve; partial curves, single points and poor fits give uncertain potencies.

Experiment: qHTS Assay for Lipid Storage Modulators in Drosophila S3 Cells;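 for cell number change: cells counted by Cell Tracker Red CMTPX staining in the red channel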
Conditions: BODIPY lipid droplet fluorescence, 18-24 h; for cell number change: measured here: cell count max response, cells fed with added oleic acid
How it was run: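 Drosophila S3 cells loaded with oleic acid (400 uM, as added) and compounds at several concentrations; lipid droplets imaged by 488-nm laser-scanning cytometry, 500–530 nm intensity and object ratio to cell channel. Percent activity normalized to 20 uM Triacsin C.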

[1] = measured here: lipid fluorescence (Fed channel) AC50, cells fed with added oleic acid
[2] = measured here: cell number channel AC50, cells fed with added oleic acid

In the case of `O=C(Cc1cccc(C(F)(F)F)c1)NCC(=O)Nc1cc(Cl)ccc1Cl`, the cell number change is reported as 25.2% and the AC50 [1] is reported as 0.58 µM [falling, single point].
In the case of `O=C(CCN1C(=O)/C(=C/c2ccccc2F)SC1=S)NCCCN1CCOCC1`, the cell number change is reported as 8.11% and the AC50 [1] is reported as 0.103 µM [rising, full curve, poor fit].
With `CCNc1ccccc(C(=O)/C=C/c2ccc3c(c2)OCO3)c1=O` the AC50 [2] was 1.16 µM [rising, partial curve] and the AC50 [1] was 0.58 µM [rising, single point].
`Cc1ccc(/C=N/NC(=O)c2ccncc2)cc1` showed a cell number change of -4.21%.
In the case of `O=C(Cc1ccc(Cl)cc1Cl)OCC(=O)N1CCN(C(=O)c2ccco2)CC1`, the cell number change is reported as 15.4%, the AC50 [2] is reported as 0.00517 µM [falling, full curve, poor fit] and the AC50 [1] is reported as 0.326 µM [falling, full curve].
With `Nc1nc(SC2c3cccc4cccc(c34)C2NS(=O)(=O)c2ccccc2)n[nH]1` (configuration not stated) the cell number change was 32.8%, the AC50 [2] was 3.66 µM [rising, partial curve] and the AC50 [1] was 2.31 µM [falling, single point].
With `O=C(O)CNC(=O)c1ccc(OC(F)F)cc1` the cell number change was -19.1% and the AC50 [1] was 8.2 µM [falling, partial curve, poor fit].
In the case of `Cc1cccc(OCC(=O)Nc2ccc3oc(=O)ccc3c2)c1C`, the cell number change is reported as 2.25% and the AC50 [1] is reported as 6.51 µM [falling, single point].
With `C/C(=N/NC(=O)c1sc(NS(=O)(=O)c2ccc(C)cc2)nc1C)c1sc(N)nc1C` the cell number change was 49.5%, the AC50 [2] was 29.1 µM [rising, single point] and the AC50 [1] was 16.4 µM [rising, single point].
`Cc1c(N=Cc2ccc(-c3ccc(Cl)cc3)o2)c(=O)n(-c2ccccc2)n1C` showed a cell number change of -13.2%.
For `Cc1ccc(NC(=O)c2nc(S(=O)(=O)Cc3ccccc3)ncc2Cl)cc1`, the AC50 [2] was 0.13 µM [falling, full curve, poor fit] and the AC50 [1] was 6.51 µM [falling, partial curve].
With `COCCCN(C(=O)c1cc2c(s1)CCCCC2)c1c(N)n(Cc2ccccc2)c(=O)[nH]c1=O` the cell number change was -39.7% and the AC50 [2] was 29.1 µM [falling, single point].
For `Cn1c(=O)c2c(nc(SCC(=O)N3CCc4ccccc43)n2Cc2ccccc2)n(C)c1=O`, the cell number change was 11.1% and the AC50 [1] was 2.06 µM [rising, partial curve].
With `FC(F)(F)c1ccc2c(c1)C1C=CCC1C(c1ccncc1)N2` (configuration not stated) the cell number change was -62.1%, the AC50 [2] was 6.51 µM [falling, partial curve, poor fit] and the AC50 [1] was 1.03 µM [falling, full curve].
With `CCN(CC)CCOCCOc1ccc(Cl)c2ccccc12` the cell number change was -7.73% and the AC50 [1] was 2.91 µM [rising, single point].
